# Patent EP0207497A2, “Quinolonecarboxylic acid derivative and process for its preparation” (KYORIN PHARMACEUTICAL CO., LTD., priority 1985, dated 1987)
# Columns and labels:
# [1] = test system: Pseudomonas aeruginosa V-1; assay: Antibacterial spectrum, MIC determination (method of Japan Society of Chemotherapy); type: cell-based; conditions: V1
# [2] = test system: P. aeruginosa IFO 12689; assay: as above; type: cell-based; conditions: Pseudomonas aeruginosa, IFO12689
compound,measurement,setting,value
"O=C(O)c1cn(C2CC2)c2cc(N3CCNCC3)c(F)cc2c1=O [CPFX, ciprofloxacin, reference compound]",MIC,[1],0.05 µg/mL
same,MIC,[2],0.2 µg/mL
